These results are taken from article PMC7545706.

Protein sequences, listed by entry. Tags and fused reporters are not part of them.
UniProt P04020: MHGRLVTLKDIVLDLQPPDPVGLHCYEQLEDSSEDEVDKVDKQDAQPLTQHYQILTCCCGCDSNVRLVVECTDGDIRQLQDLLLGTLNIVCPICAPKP

Results are given in words; binding and its absence hold for the method and conditions named. Binding seen in cells or lysates may run through a third protein. A yes stands for co-enrichment or nearness to the bait. Other partners may have been found.

This assay deals with Flag-HPV 11E7 (human papillomavirus type 11) (UniProt P04020). The assay is described as follows: affinity purification with mass spectrometry; HaCaT cells stably expressing Flag-HPV 11E7, transfected with poly(dA:dT) for 6 hrs; lysates immunoprecipitated with antibody against the Flag tag; Orbitrap Elite.

Consider “IFI16 (endogenous, HaCaT) (from UniProt Q16666-1 1-785)”, for which the binding result is reported as “binds”. Next, “TRIM21 (endogenous, HaCaT) (from UniProt P19474-1 1-475)”: “binds”.
